Laboratory results as given in patent US20230250131A1, “HYDROXYSTEROID COMPOUNDS” (Epirium Bio Inc., priority 2022, published 2023).
“And” between values parts separate entries of the source, which are not always exact repeats. Equal entries are not always repeated.

System: PGC-1α
Experiment: PGC-1α assay in differentiated C2C12 cells (ELISA-type antibody detection, absorbance at 450 nm)
Type: cell-based
Conditions: each compound tested at 0.01 nM, DMSO control as 100%
Protocol: The compounds of Table 2 were synthesized and tested in a PGC-1α assay.
Culture conditions: DMEM containing 25 mM glucose with 10% FBS supplementation; grown at 37° C. and 5% CO2.
Assay Conditions: C2C12 cells were cultured in DMEM supplemented in 10% FBS up to 80% confluence. The cells were further trypsinized and seeded into a 96 well plate at a density of 5000 cells/well (well volume—100 μL) (Day 0). Following attachment, the cells were allowed to reach 80-90% confluence in the plate (typically 48 hours post seeding) and further differentiated using DMEM+2% Horse Serum (200 μL/well). The media was changed every day or at least every alternate day for 5 days to allow myoblasts to differentiate into myotubes. On day 7 (post seeding), the cells were treated with standards and test compounds for PGC-1α assay.
PGC-1α assay: For the detection of PGC-1α, the cells were incubated with […] primary antibody (Merck, WH10010891M3) in PBS-T containing 5% BSA at 4° C. overnight. The cells were then washed three times with PBS-T for 5 minutes and incubated with 1:1000 dilution secondary antibody (Anti-rabbit IgG, HRP-linked Antibody, Cell Signaling) in PBS-T with 100% BSA for 1 hour at RT. […] Then the plate was read at 450 nm using ELISA plate reader and absorbance recorded. […] was calculated using DMSO control as 100%. […]

SMILES: [2H]C([2H])([2H])C(=O)[C@@]1([2H])CCC2C3CC=C4C[C@@H](O)CC[C@]4(C)C3[C@@H](O)C[C@@]21C (some centres unmarked)
- Single point PGC1-Alpha Assay: Activity (%) (C2C12 myotubes, individual experiments (Exp. 1-3), 10 pM): 141% and 106% and 99%
- activity at 10 pM (Mus musculus, C2C12, C2C12 myotubes, average over experiments, read-out: Single point PGC1-Alpha Assay: Average Activity (%)): 115%
